No constants are given. Whether binding was seen depends on the method and setting. Binding seen in cells or lysates may run through a third protein. Some results given as binding are weak or reduced against the parent protein; the word gives no strength.
How the values were obtained:
[1] = molecular target: Keratin 17, overexpressed in K17-overexpressing KCs (UniProt Q04695); experiment: co-IP; cell lysates incubated with anti-K17 (sc-393002) for 3 h at 4°C, then Protein A/G PLUS-Agarose overnight at 4°C, beads washed 4 times with cold PBS, immunoblot; Pso Mix-treated KCs and K17-overexpressing KCs
[2] = molecular target: Keratin 17 (human (endogenous in human keratinocytes)) (UniProt Q04695); experiment: as above

Sequences of proteins named here, by UniProt entry; tags and fusion partners are left off.
UniProt Q04695: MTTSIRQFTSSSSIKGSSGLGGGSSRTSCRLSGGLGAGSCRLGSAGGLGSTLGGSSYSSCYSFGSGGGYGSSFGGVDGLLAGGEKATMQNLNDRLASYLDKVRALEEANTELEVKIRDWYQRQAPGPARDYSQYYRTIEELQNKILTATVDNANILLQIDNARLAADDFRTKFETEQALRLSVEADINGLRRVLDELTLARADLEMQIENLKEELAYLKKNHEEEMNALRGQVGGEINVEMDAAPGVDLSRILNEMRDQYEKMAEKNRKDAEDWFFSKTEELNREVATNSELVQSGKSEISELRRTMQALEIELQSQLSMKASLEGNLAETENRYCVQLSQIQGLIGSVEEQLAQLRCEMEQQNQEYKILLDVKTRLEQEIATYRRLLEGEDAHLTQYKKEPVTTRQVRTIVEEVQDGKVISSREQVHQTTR
UniProt P06733: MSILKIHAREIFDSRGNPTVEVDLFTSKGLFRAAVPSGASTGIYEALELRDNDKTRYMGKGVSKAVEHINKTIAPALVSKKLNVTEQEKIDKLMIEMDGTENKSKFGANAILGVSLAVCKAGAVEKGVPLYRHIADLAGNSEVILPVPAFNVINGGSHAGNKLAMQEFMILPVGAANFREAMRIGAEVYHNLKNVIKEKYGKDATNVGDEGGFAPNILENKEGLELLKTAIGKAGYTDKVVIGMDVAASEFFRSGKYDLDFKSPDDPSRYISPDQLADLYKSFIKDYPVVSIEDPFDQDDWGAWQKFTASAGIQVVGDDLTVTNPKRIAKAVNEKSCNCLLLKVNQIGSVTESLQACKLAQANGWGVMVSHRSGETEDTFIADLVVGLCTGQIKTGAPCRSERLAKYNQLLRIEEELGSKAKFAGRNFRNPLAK

binding [1]: binds | binding [2]: binds
Substance: α-enolase (from UniProt P06733 1-434) (enzyme)

From article PMC10367554
